This passage reports binding results from publication PMC6177239.

No constants are given. Whether binding was seen depends on the method and setting.

This assay concerns the target NanB (Streptococcus pneumoniae D39) (UniProt Q54727). Nature of the assay: SEC; quality control of the purified recombinant neuraminidases; purity and monomeric content determined by SDS-PAGE, size exclusion chromatography and circular dichroism; both purified. On the technique in general: Size exclusion chromatography separates by hydrodynamic size, large species first.

B1: NanB (enzyme, UniProt Q54727 30-697)
chain: NELNYGQLSISPIFQGGSYQLNNKSIDISSLLLDKLSGESQTVVMKFKADKPNSLQALFGLSNSKAGFKNNYFSIFMRDSGEIGVEIRDAQKGINYLFSRPASLWGKHKGQAVENTLVFVSDSKDKTYTMYVNGIEVFSETVDTFLPISNINGIDKATLGAVNREGKEHYLAKGSIDEISLFNKAISDQEVSTIPLSNPFQLIFQSGDSTQANYFRIPTLYTLSSGRVLSSIDARYGGTHDSKSKINIATSYSDDNGKTWSEPIFAMKFNDYEEQLVYWPRDNKLKNSQISGSASFIDSSIVEDKKSGKTILLADVMPAGIGNNNANKADSGFKEINGHYYLKLKKNGDNDFRYTVRENGVVYNETTNKPTNYTINDKYEVLEGGKSLTVEQYSVDFDSGSLRERHNGKQVPMNVFYKDSLFKVTPTNYIAMTTSQNRGESWEQFKLLPPFLGEKHNGTYLCPGQGLALKSSNRLIFATYTSGELTYLISDDSGQTWKKSSASIPFKNATAEAQMVELRDGVIRTFFRTTTGKIAYMTSRDSGETWSKVSYIDGIQQTSYGTQVSAIKYSQLIDGKEAVILSTPNSRSGRKGGQLVVGLVNKEDDSIDWKYHYDIDLPSYGYAYSAITELPNHHIGVLFEKYDSWSRNELHLSNVVQYIDLEINDLTK
For B1, the binding entry is given as “no binding”.
